Results are given in words; binding and its absence hold for the method and conditions named. In cells and extracts the contact can be indirect. Binding calls can cover weak binding; strength is not graded here. Sequences can lack the tags named with a protein.
Target: CaErg11^(Y132L F145L)-MYC (C. albicans) (UniProt P10613)
Assay: co-IP; whole cell lysates of Scarv1 cells co-expressing Arv1-HA and Erg11-MYC; 1 mg protein, anti-HA (16B12) or anti-MYC (9E10) 4 hr at 4°C, Protein A agarose; washes with 10 mM HEPES pH 7.5, 200 mM NaCl, 5 mM EDTA, 0.1% Nonidet P-40; western

B1: CaArv1-HA (protein, UniProt Q5ANH2 1-296)
chain: MICIECGYSNIDCLYSKYKSDYIKLSVCPECNKIADKYIEYDSVILFLDILLLKRQAYKHLAYNLTEMEMEIGSSTNFHINDNTNFKFFHTYRKLMKLIFMILSFEVYLTWANEEKLLIHSQLINLIFNQSVVYQYLFFIIKSSLENLILNLSLQLILRLGYKWGQGPQKINGNIRDKELFGYKTSVLLVTTMVSGSIRLFPILMFIWPYDNISITKPLINLIAFINIVEALRVVTSLGYVELILSLAFSIVIRNIVSKSLLVLIVRLFLDFNFTEVYYNEMYQLYSQIQTYIRWI
For B1, the binding was “binds”.

From publication PMC7367482, “An Erg11 lanosterol 14-α-demethylase-Arv1 complex is required for Candida albicans virulence” (PLoS ONE, 2020)
